Experimental data as given in US10775394B2, “Immunoassay for phenethylamines of the 2C and DO sub-families” (Randox Laboratories Limited, priority 2013, dated 2020).

Key:
[1] = test system: DO antibody 1 (IgG fraction of antiserum raised to DOB-BSA); assay: Competitive microtitre plate ELISA, DO antibody 1 (antiserum raised to DOB-BSA); assay type: binding
Method: The appropriate antibody coating dilution was determined using standard ELISA checkerboard techniques. The plate was incubated for 2 hours at 37° C., washed 4 times over 10 minutes with Tris buffered saline containing Tween 20 (TBST) and tapped dry. […] The appropriate dilution of conjugate was also determined using standard ELISA checkerboard techniques. The plate was incubated at 25° C. for 1 hour. Excess unbound conjugate was removed by washing 6 times over a 10-15 minute period with TBST and tapped dry. 125 μl of tetramethylbenzidine (TMB) substrate solution was added to each well of the plate that was then incubated for 20 minutes in the dark at room temperature. The reaction was terminated by addition of 125 μl 0.2 M H2SO4 to each well. The absorbance was measured at 450 nm using a microtitre plate reader.

[2] = test system: 2C antibody (IgG fraction of antiserum raised to 2C-B-BSA); assay: Competitive microtitre plate ELISA, 2C antibody (antiserum raised to 2C-B-BSA); assay type: binding
Method: The wells of an enhanced binding 96 well polystyrene microtitre plate were coated with IgG fraction of antiserum raised to 2C-B-BSA, diluted in 10 mM Tris, pH8.5 (125 μl/well). The appropriate antibody coating dilution was determined using standard ELISA checkerboard techniques. The plate was incubated overnight at 4° C., washed 4 times over 10 minutes with Tris buffered saline containing Tween 20 (TBST) and tapped dry. Standard solutions of 2CB were prepared in TBST at 0, 1.25, 2.5, 5, 10, 20, 40 & 80 ng/ml, and 50 μl of each was added to the appropriate wells. 75 μl of conjugate (Example 11) diluted in Tris buffer (pH 7.2) containing EDTA, D-mannitol, sucrose, thimerosal and BSA, was added to each of the wells. The appropriate dilution of conjugate was also determined using standard ELISA checkerboard techniques. The plate was incubated at 25° C. for 1 hour. Excess unbound conjugate was removed by washing 6 times over a 10-15 minute period with TBST and tapped dry. 125 μl of tetramethylbenzidine (TMB) substrate solution was added to each well of the plate that was then incubated for 20 minutes in the dark at room temperature. The reaction was terminated by addition of 125 μl 0.2 M H2SO4 to each well. The absorbance was measured at 450 nm using a microtitre plate reader. In order to determine the specificity of the competitive ELISAs, standard solutions of a range of structurally similar compounds were prepared in TBST. Using calibration curves generated from these compounds (0-80 ng/ml) percentage cross-reactivity was determined.

| Compound | Ave OD (A450) ([1]; DOB 0.625 ng/ml) | Ave OD (A450) ([1]; DOB 1.25 ng/ml) | Ave OD (A450) ([1]; DOB 2.5 ng/ml) | Ave OD (A450) ([1]; DOB 5 ng/ml) | Ave OD (A450) ([1]; DOB 10 ng/ml) | Ave OD (A450) ([1]; DOB 20 ng/ml) | Ave OD (A450) ([1]; DOB 40 ng/ml) | Ave OD (A450) ([2]; 2C-B 1.25 ng/ml) | Ave OD (A450) ([2]; 2C-B 2.5 ng/ml) | Ave OD (A450) ([2]; 2C-B 5 ng/ml) | Ave OD (A450) ([2]; 2C-B 10 ng/ml) | Ave OD (A450) ([2]; 2C-B 20 ng/ml) | Ave OD (A450) ([2]; 2C-B 40 ng/ml) | Ave OD (A450) ([2]; 2C-B 80 ng/ml) |
| --- | --- | --- | --- | --- | --- | --- | --- | --- | --- | --- | --- | --- | --- | --- |
| COc1cc(CC(C)N)c(OC)cc1Br (racemic) [DOB, 1-(4-bromo-2,5-dimethoxyphenyl)propan-2-amine] | 1.251 | 1.126 | 0.898 | 0.672 | 0.534 | 0.340 | 0.223 | – | – | – | – | – | – | – |
| COc1cc(CCN)c(OC)cc1Br [Hapten 2C-B, 1-(4-bromo-2,5-dimethoxyphenyl)ethan-2-amine] | – | – | – | – | – | – | – | 1.958 | 1.785 | 1.561 | 1.343 | 1.207 | 1.005 | 0.858 |
